Laboratory results: PubChem BioAssay AID686937 (Drosophila RNAi Screening Center, 2013)

Screen: 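Knock-downs that reduce output of a secreted reporter enzyme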 (primary screen)
System: Drosophila S2 cells expressing secreted horseradish peroxidase
Reagent: long dsRNA against Drosophila genes
Timing: about 5.5 days (5 days dsRNA, then 12 h reporter induction)
Conditions: reporter expression induced after 5 days of dsRNA, read 12 h later; inducer not stated
Measured: 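Chemiluminescent measurement of peroxidase in the medium 12 h after reporter induction, following 5 days of dsRNA, given as a z-score per plate; higher means more secretion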
Scale: z-score: higher = more reporter secreted into medium
In all, the deposit lists about 23,000 reagents; shown is a random part of those that have a named target and a result. 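Reduced-secretion tags in replicate 1 do not always agree with the z-scores; no criterion for assigning the tags was given.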 Names joined by + are all predicted targets of the reagent. Not all columns of the deposit are shown. Not given: the amount of reagent.

z-score, replicate 1, by predicted target and reagent
ORY (Occludin-Related Y): DRSC22883 -0.21
CG42458: DRSC08881 0.37; DRSC10335 0.14
Grl62a (Gustatory receptor-like 62a): DRSC07963 0.29
CG5846: DRSC02904 0.38
MED30 (Mediator complex subunit 30): DRSC08516 -0.07
CG4301: DRSC19886 0.15
park + Targ3: DRSC11617 0.22
CG8303: DRSC07140 0.06
CG13358: DRSC18534 0.48
Uba4 (Ubiquitin-like activating enzyme 4): DRSC02194 0.07
CG6951: DRSC10755 0.05
CG11694: DRSC14354 -0.08
CG14491: DRSC06462 0.43
tsg (twisted gastrulation): DRSC20380 0.4
CG42780: DRSC17514 0.3
rswl (roswell): DRSC06923 0.29
Rdh1 (Retinol dehydrogenase 1): DRSC06812 0.2
EloA (Elongin A): DRSC16109 -0.34
CG6262: DRSC06971 -0.4
CG7914: DRSC20068 0.37
CG4074: DRSC11752 0.29

8 entries already listed, arranged by “z-score, replicate 1”, low to high.
predicted target	amplicon	z-score, replicate 1
MED30 (Mediator complex subunit 30)	DRSC08516	-0.07
CG8303	DRSC07140	0.06
CG42458	DRSC10335	0.14
CG4301	DRSC19886	0.15
park + Targ3	DRSC11617	0.22
Grl62a (Gustatory receptor-like 62a)	DRSC07963	0.29
CG5846	DRSC02904	0.38
CG13358	DRSC18534	0.48

The list goes on.
z-score, replicate 1, by predicted target and reagent
Hmgcl (3-Hydroxymethyl-3-methylglutaryl-CoA lyase): DRSC02051 0.21
CG42514: DRSC10428 0.39
CG13062: DRSC09945 0.06
CG16798: DRSC02517 0.36
Trf2 (TATA box binding protein-related factor 2): DRSC18727 -1.1
CG34057: DRSC08375 0.22
imd (immune deficiency): DRSC05928 0.01
sing + Axs: DRSC19333 0.12
CG16799: DRSC06626 0.39; DRSC21553 -0.47
CG30116: DRSC05935 0.21; DRSC06685 0.35
Pgi (Phosphoglucose isomerase): DRSC07507 0.19
CG14346: DRSC00376 0.36
ninaG: DRSC16102 0.32
lncRNA:CR32368 (long non-coding RNA:CR32368): DRSC08899 -0.48
CG31898: DRSC01019 0.65
numb: DRSC03584 0.41
pyx (pyrexia): DRSC08510 0.32; DRSC08511 -0.75
CG13996: DRSC02328 0.24
CG18549: DRSC15347 0.35
CG7183: DRSC16210 0.23
Sgs8 (Salivary gland secretion 8): DRSC11282 0.37
TP53INP (Tumor protein p53 inducible nuclear protein): DRSC08178 0.1; DRSC22552 1.31
CG31760: DRSC02590 0.41
CG13814 (retired record): DRSC10069 0.44
CG9338: DRSC03213 0.47
mbt (mushroom bodies tiny): DRSC20348 -1.28
Tim17a1: DRSC14184 0.26
CG34357: DRSC12211 0.22; DRSC12238 -0.28; DRSC12334 0.21
